Screening data, single-dose tests

Protein sequences, listed by entry. Tags and fused reporters are not part of them. Residues count along the entry.
UniProt A4I591, 1-473: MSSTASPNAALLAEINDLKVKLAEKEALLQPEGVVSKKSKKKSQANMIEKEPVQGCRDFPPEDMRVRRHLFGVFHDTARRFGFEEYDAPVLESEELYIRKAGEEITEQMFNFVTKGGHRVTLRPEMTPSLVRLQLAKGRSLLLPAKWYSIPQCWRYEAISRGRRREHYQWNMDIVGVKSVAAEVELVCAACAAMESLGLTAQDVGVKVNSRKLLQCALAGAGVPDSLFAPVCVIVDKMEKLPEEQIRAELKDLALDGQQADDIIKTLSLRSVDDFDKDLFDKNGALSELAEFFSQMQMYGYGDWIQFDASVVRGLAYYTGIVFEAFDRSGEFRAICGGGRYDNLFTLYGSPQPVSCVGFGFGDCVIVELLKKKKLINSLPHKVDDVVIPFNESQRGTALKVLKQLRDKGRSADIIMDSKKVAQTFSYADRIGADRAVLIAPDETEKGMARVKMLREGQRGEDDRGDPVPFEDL

From ChEMBL document CHEMBL3988442, “University of Dundee, Small-Polar-MMV Screening Library” (2021).

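Enzyme assay of histidyl-tRNA synthetase; the read-out is not stated. Target: Histidine-tRNA ligase, Leishmania infantum (UniProt A4I591). Compounds at 30 µM. The record gives no direction; compounds that gave an IC50 in retests scored well above the rest, so higher reads as stronger inhibition. The assay is labelled LdHisRS but filed under L. infantum. About 69,000 compounds were tested under these conditions; 0.6% (about 410) showed 50% or more at least once.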

Values are the deposited “Percent Effect”, in %.
How 0% and 100% were set is not recorded. Most values in the screen are low, and negative values occur.
The compounds are a random part of those screened.

CCc1nc2n(n1)CC(NCc1nc(-c3cccnc3)no1)CC2 (stereo unspecified) gave 18.18%.
CN(C)C(=O)CC1CC2(CCNCC2)c2cc(F)ccc21 (stereo unspecified) gave -1.504%.
Cc1cccc(C(=O)N2CCN(S(C)(=O)=O)[C@@H]3CS(=O)(=O)C[C@@H]32)n1 gave -2.667%.
CCN(C(=O)c1nc2c(s1)CCCN2Cc1ccccc1)C(C)C gave 74.36%.
COCCn1/c(=N\C(=O)CN(C)S(C)(=O)=O)sc2cc(OC)ccc21 gave 8.475%.
O=C1COc2cc(OC[C@@H]3CCCN4CCCC[C@H]34)ccc21 gave 27.43%.
COCCOCC(=O)N1C[C@H]2CC[C@@H]1CN(C1Cc3ccccc3C1)C2 gave 26.23%.
O=C(NCc1cn2c(n1)CN(Cc1cccc(F)c1)CC2)C1CCC1 gave 5.714%.
Cc1cc(-c2cnc(NC3CC3)nc2-c2ccoc2)on1 gave -40.62%.
CCc1nc(N)nc(N2CCCC3(CCN(C)CC3)CC2)c1C gave 1.754%.
Cc1ncn(CCNC(=O)Nc2ccccc2)c(=O)c1C gave 28%.
Cc1ccc(C)c(NC(=O)Nc2c[nH]c(=O)[nH]c2=O)c1 gave 12.62%.
CC(NC(=O)N1CCC(n2cncn2)CC1)c1ccc(F)cc1F (stereo unspecified) gave 7.865%.
O=S(=O)(C1CC1)N1CCC2(CCCN(c3ncccn3)C2)C1 (stereo unspecified) gave -0.9009%.
O=C(Cn1cncn1)NCC1(O)CCCc2ccccc21 (stereo unspecified) gave 10.64%.
CC(C)(O)CN1CCN(C(=O)c2cccc(CC#N)c2)CC1 gave 3.571%.
CN(C)c1cc(C(=O)N2CCCN(Cc3cscn3)CC2)ccn1 gave 12.5%.
O=C(NCc1ccccc1)NCc1nc(-c2ccncc2)n[nH]1 gave 11.43%.
Cc1ccccc1CC(=O)NCc1cnc(CC2CCN(C)CC2)cn1 gave 11.19%.
CCCOCCN1CCc2[nH]c(-c3ccc(OC)cc3)nc2C1 gave 12.28%.
CC(C)(C)c1nnc(CSc2ccccn2)o1 gave -13.7%.
OCC1CCCN1c1cc(NCc2cccc3cccnc23)ncn1 (stereo unspecified) gave 14.29%.
CCc1cc(N2CCC(NC3CCOCC3)CC2)nc(N(C)C)n1 gave 18.75%.
CN(C)CCNC(=O)c1cc(-c2cnc(N3CCCC3)nc2)cn1C gave 3.65%.
O=C1CC2(CCN(Cc3cccnc3)C2)CN1c1ccc2c(c1)OCO2 (stereo unspecified) gave -5.455%.
Cc1cccc(CN2CCCn3c(nnc3CN3CCCC3=O)C2)n1 gave 11.54%.
CN(Cc1cnn(C)c1)C(=O)Cc1ccc2c(c1)OCCO2 gave 14.81%.
CC(=O)N1CCn2c(nnc2C2CCCCN2C(C)=O)C1 (stereo unspecified) gave 6.207%.
Cc1ccc(CCNC(=O)NC2CCN(CC(F)(F)F)C2=O)cn1 (stereo unspecified) gave 12.04%.
Cc1csc(C(Cc2ccsc2)NC(=O)C2CCN(S(C)(=O)=O)CC2)n1 (stereo unspecified) gave 3.125%.
Cn1cc(CN2CCC3(CC2)CCN(Cc2ccccn2)CC3)cn1 gave 22.58%.
CC(C)(C)NC(=O)NC(=O)CNc1c(F)cccc1N1CCCC1 gave 9.756%.
Cc1cc(CNC(=O)c2cn(CCC3CCCCN3)nn2)on1 (stereo unspecified) gave 8.333%.
CCN(C)C1COC2(CCN(C(=O)c3ccc4[nH]ccc4c3)CC2)C1 (stereo unspecified) gave 11.65%.
CC(=O)NCCNC(=O)c1sc(-c2ccc(C)cc2C)nc1C gave 9.231%.

The first 4 entries again:

structure	Percent Effect
CCc1nc2n(n1)CC(NCc1nc(-c3cccnc3)no1)CC2 (stereo unspecified)	18.18%
CN(C)C(=O)CC1CC2(CCNCC2)c2cc(F)ccc21 (stereo unspecified)	-1.504%
Cc1cccc(C(=O)N2CCN(S(C)(=O)=O)[C@@H]3CS(=O)(=O)C[C@@H]32)n1	-2.667%
CCN(C(=O)c1nc2c(s1)CCCN2Cc1ccccc1)C(C)C	74.36%